The numbers were not newly measured in patent US20220257527A1, “ORALLY ADMINISTRABLE FILMS COMPRISING POORLY WATER SOLUBLE ACTIVE INGREDIENTS AND PREPARATION THEREOF” (MAABAROT PRODUCTS LTD., priority 2019, published 2022), which cites them from elsewhere.

For the data set the following is noted: in water; also printed as ppm.

Regarding `COC1=C(OC)C(=O)C(C/C=C(\C)CC/C=C(\C)CC/C=C(\C)CC/C=C(\C)CC/C=C(\C)CC/C=C(\C)CC/C=C(\C)CC/C=C(\C)CC/C=C(\C)CCC=C(C)C)=C(C)C1=O` [CoQ10, coenzyme Q10], the water solubility is 2 to 3 mg/L.
